The name of at least one read-out is uncertain. Some compounds share one wording; it may come from a single statement. Where a SMILES comes first, the peptide text is derived from it. The star is where a group is joined. X1 = COc1ccc2c3c1O[C@H]1C(O*)=CC[C@H]4[C@@H](C2)N(C)CC[C@]314
Tests used:
[1] = Bolus intravenous bioavailability in rats, LC/MS/MS; details: rat
[2] = Intravenous bioavailability of hydrocodone conjugates in rats, LC/MS/MS; details: rat, 1 mg/kg
[3] = Oral bioavailability of hydrocodone conjugates in rats, LC/MS/MS; details: rat; for Oral bioavailability compared to an equivalent hydrocodone dose: 1 mg/kg
[4] = Intranasal bioavailability in rats, plasma d-amphetamine by ELISA; details: rat
[5] = Intranasal bioavailability of hydrocodone conjugates in rats, LC/MS/MS; details: rat, 1 mg/kg
[6] = Oral bioavailability of oxycodone conjugates in rats, LC/MS/MS; details: rat, text 1 mg/kg, heading […]
[7] = Intravenous bioavailability of oxycodone conjugates in rats, LC/MS/MS; details: rat
[8] = Intranasal bioavailability of oxycodone conjugates in rats, LC/MS/MS; details: rat

Compound | Bioavailability compared to hydrocodone [2] | Oral bioavailability compared to an equivalent hydrocodone dose [3] | Bioavailability compared to hydrocodone [5] | also measured
CC(Cc1ccccc1)NC(=O)C(N)CCCCN [L-lysine-d-amphetamine, 2,6-diaminohexanoic acid-(1-methyl-2-phenylethyl)-amide] |  |  |  | Bioavailability of d-amphetamine relative to equivalent d-amphetamine sulfate dose [1]: approximately one-half
CC[C@H](C)[C@H](NC(=O)[C@H](Cc1ccccc1)NC(=O)[C@H](Cc1ccccc1)NC(=O)[C@H](CCC(=O)O)NC(=O)[C@@H](N)CCC(=O)O)C(=O)OC1=CC[C@H]2[C@H]3Cc4ccc(OC)c5c4[C@@]2(CCN3C)[C@H]1O5 [EEFFI[SEQ ID NO: 5]-HC, Glu-Glu-Phe-Phe-Ile[SEQ ID NO: 5]-Hydrocodone] (H-EEFFI-X1) | substantially decreased | maintained or increased |  | 
CC(Cc1ccccc1)NC(=O)C(N)CO (stereo not shown) [Ser-Amp, 2-amino-3-hydroxylpropanoic acid-(1-methyl-2-phenylethyl)-amide] |  |  |  | Bioavailability of amphetamine relative to free amphetamine [4]: decreased to some degree relative to free amphetamine
CC[C@H](C)[C@H](NC(=O)[C@H](Cc1ccc(O)cc1)NC(=O)[C@@H](N)Cc1ccc(O)cc1)C(=O)OC1=CC[C@H]2[C@H]3Cc4ccc(OC)c5c4[C@@]2(CCN3C)[C@H]1O5 [YYI-HC, Tyr-Tyr-Ile-Hydrocodone] | substantially decreased | maintained or increased | substantially decreased | 
COc1ccc2c3c1O[C@H]1C(OC(=O)[C@H](Cc4ccccc4)NC(=O)[C@H](Cc4ccccc4)NC(=O)[C@H](Cc4ccccc4)NC(=O)[C@H](CCC(=O)O)NC(=O)[C@@H](N)CCC(=O)O)=CC[C@H]4[C@@H](C2)N(C)CC[C@]314 [EEFFF[SEQ ID NO: 3]-HC, Glu-Glu-Phe-Phe-Phe[SEQ ID NO: 3]-Hydrocodone] (H-EEFFF-X1) | substantially decreased | maintained or increased | substantially decreased | 
CC[C@H](C)[C@H](NC(=O)[C@H](Cc1ccccc1)NC(=O)[C@H](Cc1ccccc1)NC(=O)[C@H](Cc1ccc(O)cc1)NC(=O)[C@@H](N)Cc1ccc(O)cc1)C(=O)OC1=CC[C@H]2[C@H]3Cc4ccc(OC)c5c4[C@@]2(CCN3C)[C@H]1O5 [YYFFI[SEQ ID NO: 8]-HC, Tyr-Tyr-Phe-Phe-Ile[SEQ ID NO: 8]-(6-O)-Hydrocodone] (H-YYFFI-X1) | substantial decrease in bioavailability | maintained or increased | substantial decrease in bioavailability | Bioavailability compared to hydrocodone ([5]; listed as YYFFI[SEQ ID NO: 8]): substantially decreased; Bioavailability compared to hydrocodone ([2]; listed as YYFFI[SEQ ID NO: 8]): substantially decreased; Bioavailability compared to hydrocodone bitartrate ([3]; 1 and 2 mg/kg): comparable bioavailability; Bioavailability of hydrocodone and hydromorphone compared to hydrocodone ([3]; 5 and 25 mg/kg): substantially decreased
COc1ccc2c3c1O[C@H]1C(OC(=O)[C@H](CC(C)C)NC(=O)[C@@H]4CCCN4C(=O)[C@@H]4CCCN4)=CC[C@@]4(OC(=O)[C@H](CC(C)C)NC(=O)[C@@H]5CCCN5C(=O)[C@@H]5CCCN5)[C@@H](C2)N(C)CC[C@]314 [[PPL]2-OC, [PPL]2-Oxycodone] |  |  |  | Oral bioavailability compared to an equimolar oxycodone dose [6]: maintained; Bioavailability compared to oxycodone [7]: substantially decreased; Bioavailability compared to oxycodone [8]: substantially decreased
CC[C@H](C)[C@H](NC(=O)[C@H](CC(=O)O)NC(=O)[C@@H](N)CC(=O)O)C(=O)OC1=CC[C@H]2[C@H]3Cc4ccc(OC)c5c4[C@@]2(CCN3C)[C@H]1O5 [DDI-HC, Asp-Asp-Ile-Hydrocodone] |  | maintained or increased | substantially decreased | 

Source: patent US7375083B2, “Pharmaceutical compositions for prevention of overdose or abuse” (Shire LLC, priority 2003, dated 2008)
